Binding data for 2 substances are collected here from publication PMC8874776.

Amino acid sequences for entries named in this document (tags omitted). A change or cut given only in a name is not applied to a line headed by its entry.
UniProt Q08467: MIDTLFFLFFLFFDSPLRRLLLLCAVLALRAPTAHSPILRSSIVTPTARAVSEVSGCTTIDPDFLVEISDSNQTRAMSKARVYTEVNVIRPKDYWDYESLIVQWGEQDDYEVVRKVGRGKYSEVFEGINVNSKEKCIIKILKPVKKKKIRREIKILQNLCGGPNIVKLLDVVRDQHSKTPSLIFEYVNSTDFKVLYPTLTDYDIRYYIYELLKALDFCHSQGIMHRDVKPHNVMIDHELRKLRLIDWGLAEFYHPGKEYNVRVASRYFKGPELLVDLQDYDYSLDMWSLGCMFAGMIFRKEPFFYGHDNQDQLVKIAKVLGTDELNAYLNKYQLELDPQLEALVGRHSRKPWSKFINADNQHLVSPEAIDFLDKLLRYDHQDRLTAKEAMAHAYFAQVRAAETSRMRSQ
UniProt Q08466: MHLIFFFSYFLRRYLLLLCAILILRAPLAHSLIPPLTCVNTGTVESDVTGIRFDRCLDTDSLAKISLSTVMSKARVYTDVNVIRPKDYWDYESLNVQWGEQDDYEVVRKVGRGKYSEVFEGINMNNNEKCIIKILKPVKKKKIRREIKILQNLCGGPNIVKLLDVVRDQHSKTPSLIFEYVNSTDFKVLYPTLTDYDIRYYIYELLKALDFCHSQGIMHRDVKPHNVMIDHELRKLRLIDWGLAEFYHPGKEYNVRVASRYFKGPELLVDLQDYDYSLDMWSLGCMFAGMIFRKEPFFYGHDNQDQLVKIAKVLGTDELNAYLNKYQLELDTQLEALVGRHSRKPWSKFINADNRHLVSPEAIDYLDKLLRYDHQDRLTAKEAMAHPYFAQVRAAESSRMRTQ

These are yes or no findings as the source states them, for the method shown. Binding can be weak; no strength is given.

For the test, the target named is PRU2 in the vector pBT3-SUC (Arabidopsis thaliana) (UniProt Q6NQG7). As to the kind of experiment: two-hybrid; pairwise test: CK2 subunits in pPR3-N co-transformed with pBT3-SUC-PRU2 into yeast strain NMY51, SD/-Leu/-Trp/-His/-Ade medium.

Take “full-length CK2α1 in the vector pPR3-N (from UniProt Q08467)”: the binding entry is reported as “binds”.
As for “full-length CK2α2 in the vector pPR3-N (from UniProt Q08466)”, the binding result is listed as “binds”.
